According to PubChem BioAssay AID2551 (National Center for Advancing Translational Sciences (NCATS), 2010):
Hit rate of the full screen: of about 310,000 compounds, about 17,000 (5.5%) were called active. Inconclusive results, whose numbers are uncertain, are shown with a selection of clear calls. The call rests on the fitted dose curve; in most records, active means well fitted inhibition curve with a large enough effect; inconclusive means small, poorly fitted or top-dose-only effect, or effect the other way; inactive means no such curve, though single readings can be large or run the other way. Potencies of inconclusive entries are doubtful fits and often do not repeat.

Chains of the proteins cited; added tags and fusions are not shown. Lines headed by an entry give the natural chain unless they say otherwise; changes in a name come on top.
UniProt P51450: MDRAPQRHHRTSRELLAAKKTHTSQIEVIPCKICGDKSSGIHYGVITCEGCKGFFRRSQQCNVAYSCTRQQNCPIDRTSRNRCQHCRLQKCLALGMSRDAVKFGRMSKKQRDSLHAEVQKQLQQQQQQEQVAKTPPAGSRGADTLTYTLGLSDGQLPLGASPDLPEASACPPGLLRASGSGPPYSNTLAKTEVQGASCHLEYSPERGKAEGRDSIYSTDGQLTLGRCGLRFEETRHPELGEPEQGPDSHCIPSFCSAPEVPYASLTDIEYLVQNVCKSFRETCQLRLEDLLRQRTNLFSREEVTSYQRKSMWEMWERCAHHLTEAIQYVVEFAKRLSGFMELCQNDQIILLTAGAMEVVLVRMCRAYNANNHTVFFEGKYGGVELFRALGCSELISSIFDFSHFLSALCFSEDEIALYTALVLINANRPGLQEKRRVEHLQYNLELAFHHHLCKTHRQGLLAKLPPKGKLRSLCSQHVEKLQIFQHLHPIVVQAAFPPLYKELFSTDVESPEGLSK

These molecules were tested against Nuclear receptor ROR-gamma (Mus musculus) (UniProt P51450) (assay: qHTS for inhibitors of ROR gamma transcriptional activity). Conditions: Drosophila S2 Gal4-RORgamma UAS-luciferase reporter, 20 h; activity change, negative = inhibition: at 53.6 µM (top of the series).
Procedure, shortened: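 Compounds are pin-transferred onto Drosophila Schneider cells expressing a copper-inducible Gal4–ROR gamma transactivation domain fusion. After 1 hr, copper sulfate is added to 700 uM final; luciferase is read 20 hr later.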
Further: nearly all actives have a fitted effect of over 60% in size.
On the % scale 0 is the no-effect control and ±100 the full control effect; potency means the concentration at half of the fitted maximal effect.

| Compound | Potency | activity change, negative = inhibition |
| --- | --- | --- |
| Cn1ccc(C(=O)Nc2sc3c(c2C(N)=O)CCCCC3)n1 | inconclusive: 15.8 µM [inhibitor, single point] |  |
| Cc1ccc(Nc2nc(N)c([N+](=O)[O-])c(N3CCCC(C)C3)n2)cc1C (stereo unspecified) | inconclusive: 31.6 µM [activator, single point] |  |
| CN(C(=O)c1cccnc1)c1nc(-c2ccccc2)cs1 |  | inactive: 9.74% |
| O=C(NCc1ccc(Cl)cc1)Nc1ccc(F)cc1 | inconclusive: 0.794 µM [activator, full curve, poor fit] |  |
| CCc1nnc(NC(=O)c2c(-c3ccccc3)noc2C)s1 | inconclusive: 12.6 µM [inhibitor, single point] |  |
| CCCCCNC(=O)C1CC=CCC1C(=O)O (stereo unspecified) | inconclusive: 0.282 µM [inhibitor, full curve, poor fit] |  |
| COc1ccc(COC(=O)N/N=C2/C[C@@H](O)[C@@H](O)[C@@H]3[C@@H]4C(=O)N(c5cccc(Oc6ccccc6)c5)C(=O)[C@H]4CC[C@H]23)cc1 |  | inactive: 12.8% [at 10 µM] |
| O=C(CCN1C(=O)C2C3C=CC(C4CC34)C2C1=O)Oc1ccc(Br)cc1 (stereo unspecified) |  | inactive: 1.17% |
| COc1cccc(-c2c(C(=O)N/N=C/c3cccnc3)nnn2-c2nonc2N)c1 |  | inactive: 16.7% |
| Cc1cc(=O)[nH]c(SC(C)C(=O)Nc2cccc3ccccc23)n1 (stereo unspecified) | inconclusive: 14.1 µM [inhibitor, single point] |  |
| CCCOc1cc(N)ccc1C(=O)OCCN(CC)CC |  | inactive: 3.41% [at 2.98 µM] |
| C/C(CC(=O)Nc1cccc(Cl)c1Cl)=N\NC(=O)c1ccccc1Br | inconclusive: 17.8 µM [inhibitor, single point] |  |
| O=S(=O)(NC1CC1)c1ccc(S(=O)(=O)N2CCc3ccccc32)cc1 | inconclusive: 12.6 µM [activator, partial curve] |  |
| O=C(c1ccccc1)N1N=C(c2ccccc2)CC1c1ccccc1 (stereo unspecified) |  | inactive: -36.8% |
| Cc1ccc(C(=O)O/N=C/c2ccc(N(C)C)cc2)cc1 | inconclusive: 1 µM [inhibitor, partial curve] |  |
| O=C(Nc1ccc([N+](=O)[O-])cc1)N1CCCCC1 |  | inactive: 40.6% |
| COc1cccc(NC(=S)N2CCCC2c2ccc(OC)c(OC)c2)c1 (stereo unspecified) | inconclusive: 35.5 µM [inhibitor, single point] |  |
| CC1(C)C2CCC(C2)C1C/C=N/NC(N)=S (stereo unspecified) | active: 1.78 µM |  |
| COc1ccc(NC(=O)/C(Cl)=C(/Cl)S(=O)(=O)Cc2ccccc2)cn1 | inconclusive: 5.62 µM [inhibitor, full curve, poor fit] |  |
| N#CC1=C(N)C2=CCCC[C@H]2[C@H](c2cccc(F)c2)C1(C#N)C#N | inconclusive: 15.8 µM [inhibitor, single point] |  |
| C/C(=N\NS(=O)(=O)c1ccc([N+](=O)[O-])cc1)c1ccc(NC(=O)c2ccco2)cc1 | inconclusive: 22.4 µM [inhibitor, single point] |  |
| O=C(Cn1nc([N+](=O)[O-])nc1Br)NC1CCCCC1 | inconclusive: 3.16 µM [inhibitor, single point] |  |
| CCOC(=O)N1CCN(C(=O)CNS(=O)(=O)c2cccs2)CC1 |  | inactive: -7.15% |
| Cc1ccc(N2C(=O)NC(NC(=O)C(C)(C)C)(C(F)(F)F)C2=O)cc1 (stereo unspecified) | inconclusive: 11.2 µM [activator, partial curve] |  |
| CCOC(=O)c1c(C)[nH]c(C2=NNC(=NC3CC3)SC2)c1C | inconclusive: 35.5 µM [inhibitor, single point] |  |
| Cc1ccc(NC(=O)CCn2c(=O)c3cccn3c3ccccc32)cc1C | inconclusive: 20 µM [activator, partial curve] |  |

| Compound | Potency | activity change, negative = inhibition |
| --- | --- | --- |
| Cc1cccc(OC(=O)c2sc(Cl)nc2C)c1 | inconclusive: 8.91 µM [activator, partial curve] |  |
| COc1ccccc1-c1ccc2nnc(SC)n2n1 | inconclusive: 35.5 µM [inhibitor, single point] |  |
| CCn1c(=O)c(C(=O)NNC(=O)c2ccccc2F)c(O)c2ccccc21 | active: 7.94 µM |  |
| NC(=O)c1sc2nc3c(c(-c4ccco4)c2c1N)CCCC3 |  | inactive: 3.77% |
| Cn1cnnc1SCC(=O)Nc1sc2c(c1C#N)CCCCC2 | inconclusive: 2.51 µM [activator, full curve, poor fit] |  |
| COc1ccc(N2C(=O)CCC(C(=O)N(C)CCc3ccccn3)C2c2ccc(OC)c(OC)c2)cc1 (stereo unspecified) |  | inactive: 0.725% |
| C/C(=N\Nc1cc(-c2ccccc2)nc(-c2ccccc2)n1)c1ccc(O)c(C)c1 | active: 8.91 µM |  |
| CC(C)(C)c1ccc(C(=O)Nc2nnc(SCC(=O)NCC3CCCO3)s2)cc1 (stereo unspecified) | inconclusive: 17.8 µM [inhibitor, partial curve] |  |
| C/C(Cn1nc([N+](=O)[O-])cc1C)=N\NC(=O)COc1c(Cl)cc(Cl)cc1Cl | inconclusive: 35.5 µM [inhibitor, single point] |  |
| O=C(CCN1C(=O)C2C3C=CC(C3)C2C1=O)NCCc1ccccc1 (stereo unspecified) |  | inactive: -0.393% |
| C=C(C)Cn1c(CCCNC(=O)C(C)(C)C)nc2ccccc21 | inconclusive: 4.47 µM [activator, single point] |  |
| Cc1ccc(NC(=O)CSc2nnc(CNC(=O)C34CC5CC(CC(C5)C3)C4)n2-c2ccc(F)cc2)cc1 | inconclusive: 31.6 µM [activator, single point] |  |
| CC(=O)N1CCC2(CCCN(c3ccncc3)C2)CC1 |  | inactive: 6.32% |
| CN(C)Cc1ccccc1-c1cncnc1NCc1cccnc1 |  | inactive: 8.69% |
| Cc1ccc(S(=O)(=O)NNC2=NS(=O)(=O)c3ccccc32)c(C)c1 | active: 10 µM |  |
| CS(=O)(=O)Nc1cccc(C2=NN(C(=O)c3cccc(F)c3)C(c3cccs3)C2)c1 (stereo unspecified) |  | inactive: 15.3% |
| CN(C)S(=O)(=O)c1ccc(C(=O)Nc2nnc(-c3cccs3)o2)cc1 | active: 0.631 µM |  |
| Cc1cc(Nc2ccc(F)cc2Cl)n2nc(C)nc2n1 | inconclusive: 14.1 µM [inhibitor, single point] |  |
| CC(C)N(C(C)C)S(=O)(=O)c1ccc(NN)nc1 | active: 14.1 µM |  |
| CCOC(=O)c1c(C)n(-c2ccccc2)c2ccc(O)c(CN(C)C)c12 |  | inactive: -19.2% |
| O=C1CSC(=S)N1/N=C/c1cccc(C(F)(F)F)c1 | active: 7.94 µM |  |
| Cc1ccc(NC(=S)Nc2ccc(F)cc2)cc1 | active: 11.2 µM |  |
| O=C(c1cc(COc2cccc(C(F)(F)F)c2)on1)N1CCC(Oc2cccnc2)CC1 | inconclusive: 31.6 µM [inhibitor, single point] |  |
| CCCCc1ccc(/C=C2\C(=O)c3ccccc3C(O)=C2C(=O)OCC)cc1 | active: 10 µM |  |
| Cc1nnc(SCC(=O)c2cc(C)n(-c3ccc4c(c3)OCO4)c2C)s1 | inconclusive: 1.78 µM [activator, full curve] |  |
| C=CCN=C1S/C(=C/c2cccc([N+](=O)[O-])c2)C(=O)N1CC=C |  | inactive: 3.6% |

| Compound | Potency | activity change, negative = inhibition |
| --- | --- | --- |
| CCn1c(C)c(CCC(=O)O)c(=O)n2nc(-c3ccccc3OC)cc12 |  | inactive: -4.3% |
| O=C(O)/C=C/C(=O)Nc1ccc(N2CCOCC2)nc1N1CCOCC1 | inconclusive: 35.5 µM [inhibitor, single point] |  |
| COc1ccccc1Oc1nc2ccccn2c(=O)c1/C=C(\C#N)C(=O)Nc1c(C)n(C)n(-c2ccccc2)c1=O |  | inactive: 18.8% |
| CCC1(C)Cc2c(sc3nc(SC)[nH]c(=S)c23)CO1 (stereo unspecified) | inconclusive: 14.1 µM [inhibitor, partial curve] |  |
| COC(=O)c1ccc(NC(=O)c2cc3c(CO)cnc(C)c3oc2=Nc2cccc(C(N)=O)c2)cc1 |  | inactive: 24.6% |
| C/C(=N\Nc1nc(N)cc(Cl)n1)c1ccc(Cl)c(Cl)c1 |  | inactive: -26% |
| C1=C(c2ccc(-c3ccccc3)cc2)Nc2ncnn2C1c1ccco1 (stereo unspecified) | active: 11.2 µM |  |
| CCOc1ccc2c(c1)c(N=NC(=N)N)c(O)n2C |  | inactive: -4.62% |
| CCN(CC(=O)Nc1ccccc1Br)Cc1nc2ccccc2c(=O)[nH]1 | active: 11.2 µM |  |
| CC[N+](C)(C)c1cccc(O)c1 | inactive |  |
| Cc1ccc(NC(=O)Cn2c(O)c(N=NC(N)=S)c3ccccc32)cc1 | inconclusive: 10 µM [inhibitor, partial curve] |  |
| Cc1ccc(-n2c(Cn3nc(C(F)(F)F)cc3C)n[nH]c2=S)cc1 | inconclusive: 35.5 µM [inhibitor, single point] |  |
| CC(=O)Nc1c([N+](=O)[O-])cc(C)c(Cl)c1[N+](=O)[O-] | inconclusive: 22.4 µM [inhibitor, single point] |  |
| O=C(Nc1ccc(OC(F)(F)F)cc1)c1ccc(S(=O)(=O)N2CCOCC2)o1 | inconclusive: 35.5 µM [activator, single point] |  |
| Cc1ccc(C2CCN(C(=O)Nc3ccccc3)C2)cc1 (stereo unspecified) |  | inactive: 34.4% |
| Cc1c(CCO)c(=O)n(C)n1C(=O)c1ccc(F)cc1 |  | inactive: -15.7% |
| CC1=C(C)CS(=O)N(c2ccc(S(N)(=O)=O)cc2)C1 (stereo unspecified) | active: 3.55 µM |  |
| O=C(N/N=C/c1ccc([N+](=O)[O-])cc1)c1cccc2cc[nH]c12 |  | inactive: -12% |
| c1ccc(Cn2nnc3c(N4CCCCCC4)ncnc32)cc1 | inconclusive: 7.08 µM [activator, partial curve] |  |
| Cc1cccc(-c2nc3cc(NC(=O)C4CCCO4)ccc3o2)c1 (stereo unspecified) | active: 0.282 µM |  |
| C=CCn1c(SCC(=O)N2CC(=O)Nc3ccccc32)nc2scc(-c3ccccc3)c2c1=O |  | inactive: 21.4% |
| Cc1cc(NC(=O)CCC(=O)N(CCC(C)C)C(C(=O)NCC2CCCO2)c2ccccc2C)no1 (stereo unspecified) |  | inactive: 16.5% |
| Oc1ccccc1/C=N/Nc1ccnc(SCc2ccccc2)n1 | active: 0.355 µM |  |
| O=C(N/N=C/c1ccoc1)c1ccc(Br)cc1 | inconclusive: 12.6 µM [inhibitor, single point] |  |
